# According to paper PMC7819943, “Rice protein-binding microarrays: a tool to detect cis-acting elements near promoter regions in rice”:
# The other results are listed elsewhere or left out.
# Biological target: T1, OsSMF1 (Oryza sativa, UniProt Q6ZLB0 1-436)
# T1 sequence: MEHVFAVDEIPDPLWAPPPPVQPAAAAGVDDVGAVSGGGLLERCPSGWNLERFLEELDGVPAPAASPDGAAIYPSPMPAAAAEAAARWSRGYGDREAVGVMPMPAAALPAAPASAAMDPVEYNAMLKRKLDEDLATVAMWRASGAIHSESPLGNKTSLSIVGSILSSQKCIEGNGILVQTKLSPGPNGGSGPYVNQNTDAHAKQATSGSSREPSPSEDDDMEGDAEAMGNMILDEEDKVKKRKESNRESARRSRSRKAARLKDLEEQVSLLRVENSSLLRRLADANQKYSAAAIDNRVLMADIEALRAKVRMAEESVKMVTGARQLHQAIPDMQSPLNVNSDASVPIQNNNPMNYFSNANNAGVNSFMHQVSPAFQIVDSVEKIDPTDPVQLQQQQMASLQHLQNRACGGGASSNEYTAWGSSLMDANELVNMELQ
# Assay: protein-binding microarray (RPBM); PBS, 2% BSA, 51.3 ng/ul salmon testes DNA, 50 uM zinc acetate, 200 nM TF, 25 C, 1 h; high values mean tight binding
# Conditions: protein: recombinant; tags: N-terminal polyhistidine and DsRed monomer fusion (pET32a); chain copies: 2; label: CyDye5-dUTP incorporated in the synthesized complementary strand; 3' TTTTT single-stranded linker to array surface; dsDNA, one strand shown
# How it was run: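 In PBS with 2% BSA, salmon testes DNA and 50 µM zinc acetate, 200 nM protein was incubated on a custom Agilent array at 25 °C for 1 h and then washed off. The array had been made double-stranded by primer extension with Cy5-dUTP and blocked with 2% BSA. The proteins were transcription factors fused N-terminally to polyhistidine and DsRed, expressed in E. coli BL21-CodonPlus and purified on Ni–NTA. The binding signal is per-feature fluorescence intensity (arbitrary units) from an Axon 4000B scanner.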
row,Sequence,binding signal
1,CCACATGCCAATTGTGATGGAGATGGACAATGCTGAAATTCGGAGTCACCTAGTGCAG,3150 fluorescence intensity (a.u.)
2,TTACTATATGGGCGACCACTGGCAACATGGTCCCACGTGCCGGAGTCACCTAGTGCAG,3760 fluorescence intensity (a.u.)
3,CAAAGCAAAACCTTGGGCAGAACACGTACTCCCTCCGTTTCGGAGTCACCTAGTGCAG,3620 fluorescence intensity (a.u.)
4,CTTGGTGGTTTTATAGGGTGGTTTCGCTGACGTGGCGTGGCGGAGTCACCTAGTGCAG,44600 fluorescence intensity (a.u.)
5,CTCTTTTATAATAGTAGTCCATCTCTTAACACTAGTCAACCGGAGTCACCTAGTGCAG,3260 fluorescence intensity (a.u.)
6,AAAGTTGCTGCTCGATGGGTTATGACTTTAGCTTTGGTCGCGGAGTCACCTAGTGCAG,4400 fluorescence intensity (a.u.)
7,TTTAAGTACAGTCATGATTTTCCGTGCACAACTTTAACCGCGGAGTCACCTAGTGCAG,4160 fluorescence intensity (a.u.)
8,GAATGAATTGGTGCCACGTGTCAAGAGAACGAACGGGCTTCGGAGTCACCTAGTGCAG,24900 fluorescence intensity (a.u.)
9,CGCGAGGTACTGTGGATGAATTTGAGCTGTATCGCGAGTGCGGAGTCACCTAGTGCAG,3540 fluorescence intensity (a.u.)
10,ACCAAACAGCAACCTATCAAGCAATGACAAATACTTTCCACGGAGTCACCTAGTGCAG,3380 fluorescence intensity (a.u.)
11,CGCCATGTCAGCTTCATCCTCGCCACGTCCTCCCATGTCACGGAGTCACCTAGTGCAG,17400 fluorescence intensity (a.u.)
12,GTTGGTCATTTCATCTCCATGCCGACTGCGTCAGCTATTGCGGAGTCACCTAGTGCAG,3300 fluorescence intensity (a.u.)
13,CCGTGCTCCGCGCCACGACGACGACGACGACCACCACCACCGGAGTCACCTAGTGCAG,3210 fluorescence intensity (a.u.)
14,AATCACGGTATCTCTCATGATTTTCACGGTAACTACAGTTCGGAGTCACCTAGTGCAG,20800 fluorescence intensity (a.u.)
15,CCTGTGATTGCTCGGTAATATTAACTTGATCGCTTGCACACGGAGTCACCTAGTGCAG,3360 fluorescence intensity (a.u.)
16,CTTGAACATATACGTGGGCGTGTAATAAAGGACTTTCTTCCGGAGTCACCTAGTGCAG,4280 fluorescence intensity (a.u.)
17,GCTCGTTGTCATCACCTGCTCCAAGCCACGGGGCCTCCTCCGGAGTCACCTAGTGCAG,3720 fluorescence intensity (a.u.)
18,CAATCAATGACATGTGGGTCCCTCCTTTTGACTCAGCAAGCGGAGTCACCTAGTGCAG,10500 fluorescence intensity (a.u.)
19,CAATCTCGAGATTCTCCGCTGCTATTATCCCCGATCCAAACGGAGTCACCTAGTGCAG,3550 fluorescence intensity (a.u.)
20,AGGACACGTAGCATTTCCTCCTCAAGCAAGAGGAGCAGTACGGAGTCACCTAGTGCAG,4000 fluorescence intensity (a.u.)
21,GGATTGAATTAAACCCTTACATCTAAACTTGCGTGTCAGTCGGAGTCACCTAGTGCAG,5600 fluorescence intensity (a.u.)
22,GTGTAACACGATTACACGTGTAGCGCACATAAGCACCAAACGGAGTCACCTAGTGCAG,4330 fluorescence intensity (a.u.)
23,CTTCTGCCGCGCCACCAACCATCCATCGCTGACGCTTCCACGGAGTCACCTAGTGCAG,4170 fluorescence intensity (a.u.)

# Copied from the list:
# In binding signal, CCACATGCCAATTGTGATGGAGATGGACAATGCTGAAATTCGGAGTCACCTAGTGCAG has 3150 fluorescence intensity (a.u.)
# In binding signal, CTTGAACATATACGTGGGCGTGTAATAAAGGACTTTCTTCCGGAGTCACCTAGTGCAG has 4280 fluorescence intensity (a.u.)
